Measured values: patent US10808008B2, “Aromatic-cationic peptides and uses of same” (Cornell University, priority 2012, dated 2020)

Experiment: Fluorescence spectroscopy of labelled peptides with cardiolipin
Format: binding
Conditions: for λmax without CL / λmax with CL: excitation 350 nm
From the text: The peptides 2′,6′-Dmt-D-Arg-[…] (SS-19) and 2′,6′-Dmt-D-Arg-Phe-Lys-Ald-NH2 (SS-37) cationic peptides carry net positive charge at neutral pH. They are expected to associate with anionic phospholipid cardiolipin based on electrostatic interaction. The interaction of small peptides with lipid membranes can been studied using fluorescence spectroscopy (Surewicz and Epand, 1984). […] Polarity-sensitive fluorescent probes were incorporated into the peptides and fluorescence spectroscopy was used to determine if SS-19, SS-37 and SS-36 interact with CL.
The peptide 2′,6′-Dmt-D-Arg-Phe-(atn)Dap-NH2 (SS-19) contains anthraniloyl incorporated into diaminopropionic acid. Anthraniloyl derivatives fluoresce in the 410-420 nm range when excited at 320-330 nm (Hiratsuka T, 1983). The quantum yield of anthraniloyl derivatives is strongly dependent on the local environment, and can increase 5-fold going from water to 80% ethanol, together with a blue shift in the emission maxima (λ max) of <10 nm (Hiratsuka T, 1983). Fluorescence emission spectrum of SS-19 (1 μM) alone, and in the presence of increasing concentrations of CL (5 to 50 μg/ml), was monitored following excitation at 320 nm using Hitachi F-4500 fluorescence spectrophotometer.
The peptide 2′,6′-Dmt-D-Arg-Phe-Lys-Ald-NH2 (SS-37) contains an additional amino acid, aladan (Ald), which has been reported to be particularly sensitive to the polarity of its environment and it has been used to probe the electrostatic character of proteins (Cohen et al., 2002). When excited at 350 nm, λmax shifts from 542 nm in water to 409 nm in heptane, accompanied by a significant increase in quantal yield (Cohen et al., 2001). Fluorescence emission spectrum of SS-37 (1 μM) alone, and in the presence of increasing concentrations of CL, was monitored following excitation at 350 nm. Addition of CL (5 to 50 μg/ml) led to a 3-fold increase in quantal yield of SS-37 as well as a clear blue shift in λ max, from 525 nm without CL to 500 nm with 50 μg/ml CL (FIG. 11B).
The peptide 2′,6′-Dmt-D-Arg-Ald-Lys-NH2 (SS-36) contains Ald in place Phe^3 in SS-02. Fluorescence emission spectrum of SS-36 (1 μM) alone, and in the presence of increasing concentrations of CL, was monitored following excitation at 350 nm. SS-36 was the most sensitive to the addition of CL, with dramatic increase in quantal yield and blue shift observed with much lower added amounts of CL (1.25 to 5 μg/ml). The λmax shifted from 525 nm without CL to 500 nm with as little as 1.25 μg/ml CL, and quantal yield increased by more than 100-fold with the addition of 5 μg/ml of CL (FIG. 11C). […] Accordingly, aromatic-cationic peptides of the present disclosure are useful for the prevention or treatment of diseases or disorders characterized by dysregulation of cardiolipin.
Changes in the emission intensity of the [atn]SS-02 and the [ald]SS-02 were measured using a Hitachi F-4500 fluorescence spectrophotometer. The different solvents used to dissolve the various phospholipids (chloroform, methanol and ethanol) had negligible effect on the fluorescence spectrum of [atn]SS-02 and [ald]SS-02. All experiments were done in low ionic solution (deionized water) to optimize electrostatic interactions of peptides with phospholipids.
Increasing concentrations of cardiolipin (5, 10, 25, and 50 μg/mL) were added to 1 μM [atn]SS-02, and the emission intensity between 350 nm and 500 nm was measured.

Substance	λmax of aladan with cardiolipin (1 μM peptide, cardiolipin 1.25, 2.5, 5 μg/mL, λex 360 nm (Example 21)) [nm]	λmax without CL (1 μM peptide) [nm]	λmax of aladan before cardiolipin (1 μM peptide, λex 360 nm (Example 21)) [nm]	λmax with CL (1.25 μg/ml CL) [nm]	λmax with CL (50 μg/ml CL) [nm]
2′,6′-Dmt-D-Arg-Ald-Lys-NH2 [SS-36]	510	525	540	500	–
2′,6′-Dmt-D-Arg-Phe-Lys-Ald-NH2 [SS-37]	–	525	–	–	500
